Measurements: PubChem BioAssay
The shares of active, inactive and inconclusive entries below differ from those in the screen. Calls of active or inactive are those of the source.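 How the source made its calls: active means Fgf4 expression under 0.8 fold of control in both repeat measurements at one or both tested doses; inconclusive means under 0.8 fold in just a single repeat measurement; inactive means the rest.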

Test: Fgf4 repression measured by qPCR – cell-based, mouse ESC, RT-qPCR, cherry-pick, esBAF inhibitor project, confirmation (AID 743177);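 further: Fgf4 transcript normalised to actin in duplex TaqMan qPCR; cells exposed to compound for 24 h before lysis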
Details: mouse ESC E14, Fgf4 mRNA qPCR fold change; at 33 µM; stronger effect = lower value

Structure (SMILES) | Fgf4 expression fold change
Cn1c2ccccc2c(=O)c2cc(C#Cc3ccsc3)ccc21 | inconclusive: 0.646
COc1ccc(-c2csc(Nc3cccc(C)n3)n2)cc1OC | inconclusive: 0.727
Cc1ccc(CN2CC(C(=O)Nc3cc(C)ccn3)CC2=O)cc1 (stereo unspecified) | active: 0.439
O=C(N/N=C/c1cnc2ccccc2n1)c1cccc(F)c1 | inactive: 1.07
O=C(Cc1ccccc1)N/N=C/c1ccccc1OCc1ccc(Cl)cc1 | inconclusive: 0.98
Cc1ccccc1-c1nnc(-c2cccc3ccccc23)o1 | inactive: 0.96
c1ccc(-c2noc(CC3CCCCC3)n2)cc1 | inactive: 1.24
CN(C)c1ccc(CNc2nc3cc(-c4ccc(F)cc4)sc3c(=O)n2C)cc1 | inactive: 0.92
CN(CC(=O)Nc1ccccc1Br)C(=O)c1cc2c(s1)CCCCC2 | inactive: 0.818
c1ccc(-c2nnc3oc(-c4cccs4)nn23)cc1 | inconclusive: 0.769
Fc1ccc(CSc2ccc(-c3cccs3)nn2)cc1 | inconclusive: 0.768
